Experimental data from patent US12365875B2, “Methods for generating skeletal muscle progenitor cells” (The Regents of the University of California, priority 2017, dated 2025).
At least one structure is not confirmed: it was looked up by name or label, or the drawing left a doubt.

Tested on: hPSC-SMPCs
Experiment: Passaging and expansion of hPSC-SMPCs with added factors, gene expression
Type: cell-based, human
Description: At day 50, myogenic genes PAX7, MYF5, MYOD, MYOG, and MYH3 were measured by QPCR and expressed as fold-change versus day 35 of directed differentiation. […] Subsequently, IGF-1 was added to N2 media in all experiments (FIGS. 5-8, 10A-10D, 10F, 11, and 12A-12E). […] Subsequently, FGF2 was added to SkBM-2 media in experiments (FIGS. 5-8, 10A-10D, 10F, 11, and 12A-12E).
HiPSC-SMPC subpopulations enrich for PAX7 but activate and increase expression of MYOD after passaging. […] (FIG. 9A).

C=C[C@@]1(C)CC(=O)[C@]2(O)[C@@]3(C)[C@@H](O)CCC(C)(C)[C@@H]3[C@H](O)[C@H](OC(C)=O)[C@@]2(C)O1 [Forskolin]
stemness factors HEYL and CJUN (passaged SMPCs in SKBM2): stabilize or increase stemness factors
PAX7 expression during expansion (passaged SMPCs, compared to SKBM2 alone): rescues PAX7 expression
